Reference: publication PMC5719404
Results are given in words; binding and its absence hold for the method and conditions named. Binding seen in cells or lysates may run through a third protein. Some binding calls cover weakened binding; strength is not graded here. Tags and fused reporters may be left off the sequences shown.

Assays:
[1] = target: T1, Rad11-YFP (Schizosaccharomyces pombe) (UniProt Q92372); assay: co-IP; S. pombe lysate in EB buffer (50 mM HEPES, 50 mM KOAc pH 7.5, 5 mM EGTA, 1% triton X-100), treated with 250 mU/µl benzonase for 30 min; anti-GFP antibody and Protein G Dynabeads, 4 °C; Pku70-HA detected by anti-HA Western blot
T1 sequence: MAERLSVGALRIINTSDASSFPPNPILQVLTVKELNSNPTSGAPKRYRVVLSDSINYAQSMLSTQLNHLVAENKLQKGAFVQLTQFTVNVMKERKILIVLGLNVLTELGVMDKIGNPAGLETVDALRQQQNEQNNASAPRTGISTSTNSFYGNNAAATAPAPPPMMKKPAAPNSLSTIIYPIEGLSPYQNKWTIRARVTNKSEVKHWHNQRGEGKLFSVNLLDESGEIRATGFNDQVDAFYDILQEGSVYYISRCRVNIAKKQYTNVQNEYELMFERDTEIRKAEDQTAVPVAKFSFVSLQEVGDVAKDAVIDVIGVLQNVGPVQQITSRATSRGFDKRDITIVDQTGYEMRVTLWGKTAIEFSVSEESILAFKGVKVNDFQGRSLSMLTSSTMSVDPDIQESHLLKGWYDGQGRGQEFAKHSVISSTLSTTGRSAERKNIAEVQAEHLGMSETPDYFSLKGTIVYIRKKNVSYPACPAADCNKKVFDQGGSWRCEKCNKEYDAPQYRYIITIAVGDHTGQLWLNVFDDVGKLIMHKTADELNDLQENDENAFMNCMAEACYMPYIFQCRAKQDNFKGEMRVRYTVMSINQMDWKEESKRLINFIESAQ

[2] = target: T2, Ssb3-YFP (Schizosaccharomyces pombe) (UniProt Q92374); assay: as above
T2 sequence: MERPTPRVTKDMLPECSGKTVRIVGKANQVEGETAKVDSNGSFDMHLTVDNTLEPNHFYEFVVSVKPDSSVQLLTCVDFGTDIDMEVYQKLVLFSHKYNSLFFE

binding [1]: binds
binding [2]: binds
B1: Pku70-HA (protein, UniProt O94395 1-607)
chain: MENDEQIDETENFAIGKYAILFVIEVSPSMLDPVDEFTPSSLQMALICAYQLAAQRVITNPSDIMGVLLYGTESSTGRFANQMMLLDIDPPDAERIKSLQSFEKDFQFSKEKFKPCSCQVSLSSVLYHCSVIFTTKAENFEKRLFLITDNDHPAWDATERDIILQRAKDLRDLDIQVHPVFLDPPTHSFRINIFYSDFLYIVYGRQDVSNLVNRGQAQLQHMLNMITALQKPKRAHFHLKMDLGNDVRIGVEAFILLKRLESAKTNWVYAKGERFAVAVPQSKQVSFATKKELKKDEIRRSYSYGGSSVVFGSDELNKVRSFEPPTLRIIGFRDFSTLKPWHCLKPAVFLRPKDDEIIGSGAVFSAIHKKLLASNKIGIAWFVSRPNANPCFVAMLATPGSIHIRDDFELPLGIFLVQLPTADDIRSLPPINPNPISMPSNLIETMQRILRGMELRSYQPGKYNNPSLQWHYKVLQALALDEEIPTDFVDNTLPKYKAIQKRVGEYMGDVNNIVAEYRNDISDKNGIKEEEEDQGPIVKKARIEKSGKPIFAEDDRLKQLYIEGVLDKEIKALKVSQLKDILRDRGLRVSGKKADLLDNLTNYVKKL
